Measured values reported in article PMC5104429 (2016).
No constants are given. Whether binding was seen depends on the method and setting. For some of these results: Binding seen in cells or lysates may run through a third protein. Some results given as binding are weak or reduced against the parent protein; the word gives no strength.

By UniProt entry, the sequences of proteins in these tests, tags left out. Where a name states a change or a piece, a line headed by the entry shows the natural chain unless it says otherwise.
UniProt Q5S007: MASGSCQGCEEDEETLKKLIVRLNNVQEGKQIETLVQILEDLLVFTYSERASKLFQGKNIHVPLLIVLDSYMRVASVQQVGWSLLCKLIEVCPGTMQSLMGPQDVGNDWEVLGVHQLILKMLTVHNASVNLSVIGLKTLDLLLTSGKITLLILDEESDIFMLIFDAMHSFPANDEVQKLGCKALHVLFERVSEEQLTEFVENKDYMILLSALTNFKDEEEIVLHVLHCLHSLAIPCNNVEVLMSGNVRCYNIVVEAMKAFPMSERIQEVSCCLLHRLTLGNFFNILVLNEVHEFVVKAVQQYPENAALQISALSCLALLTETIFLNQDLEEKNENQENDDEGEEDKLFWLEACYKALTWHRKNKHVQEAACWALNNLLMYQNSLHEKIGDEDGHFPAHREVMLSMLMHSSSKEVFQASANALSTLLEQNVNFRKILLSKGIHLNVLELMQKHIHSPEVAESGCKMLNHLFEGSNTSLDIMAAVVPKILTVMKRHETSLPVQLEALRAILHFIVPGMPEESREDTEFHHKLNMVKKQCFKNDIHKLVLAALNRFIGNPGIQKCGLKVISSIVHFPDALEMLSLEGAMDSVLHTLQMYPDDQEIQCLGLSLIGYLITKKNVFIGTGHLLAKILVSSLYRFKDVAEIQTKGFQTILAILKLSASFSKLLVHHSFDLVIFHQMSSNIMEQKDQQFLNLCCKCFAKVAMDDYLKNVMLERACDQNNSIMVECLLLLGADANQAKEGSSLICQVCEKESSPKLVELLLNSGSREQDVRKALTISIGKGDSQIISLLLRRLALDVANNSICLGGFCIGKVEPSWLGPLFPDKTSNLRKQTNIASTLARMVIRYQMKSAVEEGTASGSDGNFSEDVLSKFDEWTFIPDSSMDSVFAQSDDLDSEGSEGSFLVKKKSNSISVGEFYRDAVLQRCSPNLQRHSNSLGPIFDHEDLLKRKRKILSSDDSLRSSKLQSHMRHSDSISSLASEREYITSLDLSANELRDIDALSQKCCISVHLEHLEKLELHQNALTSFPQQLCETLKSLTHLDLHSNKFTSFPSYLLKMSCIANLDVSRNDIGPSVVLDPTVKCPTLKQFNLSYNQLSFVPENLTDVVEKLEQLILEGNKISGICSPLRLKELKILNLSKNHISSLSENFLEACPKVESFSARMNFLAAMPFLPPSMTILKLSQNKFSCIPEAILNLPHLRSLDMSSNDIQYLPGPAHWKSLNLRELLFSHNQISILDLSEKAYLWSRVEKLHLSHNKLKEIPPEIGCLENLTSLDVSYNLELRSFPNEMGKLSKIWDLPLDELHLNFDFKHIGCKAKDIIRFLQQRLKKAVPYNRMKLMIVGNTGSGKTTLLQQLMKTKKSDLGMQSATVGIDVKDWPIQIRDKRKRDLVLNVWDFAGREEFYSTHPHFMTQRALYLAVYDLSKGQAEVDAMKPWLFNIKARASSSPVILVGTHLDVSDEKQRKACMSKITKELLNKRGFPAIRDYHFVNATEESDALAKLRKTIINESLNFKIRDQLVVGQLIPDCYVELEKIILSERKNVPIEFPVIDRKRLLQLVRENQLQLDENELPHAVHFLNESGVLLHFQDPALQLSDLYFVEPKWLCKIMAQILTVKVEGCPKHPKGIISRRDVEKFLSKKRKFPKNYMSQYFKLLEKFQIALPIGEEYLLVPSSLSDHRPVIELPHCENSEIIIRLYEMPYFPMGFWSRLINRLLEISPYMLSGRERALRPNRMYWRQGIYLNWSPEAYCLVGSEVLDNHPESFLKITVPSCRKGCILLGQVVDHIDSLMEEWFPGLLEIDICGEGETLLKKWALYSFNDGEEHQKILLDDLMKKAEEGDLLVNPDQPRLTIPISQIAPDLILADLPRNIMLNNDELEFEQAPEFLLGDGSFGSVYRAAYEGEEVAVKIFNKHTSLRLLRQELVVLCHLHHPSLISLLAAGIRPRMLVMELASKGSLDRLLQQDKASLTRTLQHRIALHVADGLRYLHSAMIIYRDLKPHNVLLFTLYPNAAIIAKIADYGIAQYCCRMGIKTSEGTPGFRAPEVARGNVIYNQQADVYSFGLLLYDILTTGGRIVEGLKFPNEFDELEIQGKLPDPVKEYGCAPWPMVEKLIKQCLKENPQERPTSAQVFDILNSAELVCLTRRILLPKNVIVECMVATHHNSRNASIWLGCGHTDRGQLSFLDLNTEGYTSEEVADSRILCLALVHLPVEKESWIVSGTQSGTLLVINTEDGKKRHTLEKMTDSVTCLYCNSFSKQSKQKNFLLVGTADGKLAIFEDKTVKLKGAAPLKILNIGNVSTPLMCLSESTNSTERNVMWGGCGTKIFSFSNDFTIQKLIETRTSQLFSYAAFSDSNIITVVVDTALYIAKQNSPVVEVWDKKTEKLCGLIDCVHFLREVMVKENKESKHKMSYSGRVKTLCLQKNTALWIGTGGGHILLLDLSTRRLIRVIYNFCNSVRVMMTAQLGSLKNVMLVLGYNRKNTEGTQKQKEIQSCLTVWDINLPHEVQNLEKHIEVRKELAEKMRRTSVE
UniProt Q13158: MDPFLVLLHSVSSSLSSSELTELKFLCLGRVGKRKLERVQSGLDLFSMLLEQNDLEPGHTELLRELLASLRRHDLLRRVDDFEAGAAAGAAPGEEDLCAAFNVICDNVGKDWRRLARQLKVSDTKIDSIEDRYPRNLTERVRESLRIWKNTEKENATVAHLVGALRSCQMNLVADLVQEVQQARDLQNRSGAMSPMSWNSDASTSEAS

What was measured:
[1] = molecular target: Flag-tagged A211V-LRRK2 (human) (UniProt Q5S007); assay: ELISA; 15 ug clarified lysate of HEK293T co-expressing Flag-LRRK2 and V5-FADD bound to Flag-coated ELISA plates 2 h at 37 C; washed (50 mM Tris, 150 mM NaCl, 0.1% Tween-20); co-captured V5-FADD detected with anti-V5, normalised to captured LRRK2
[2] = molecular target: Flag-tagged G2019S-LRRK2 (human) (UniProt Q5S007); assay: as above
[3] = molecular target: Flag-tagged I2020T-LRRK2 (human) (UniProt Q5S007); assay: as above
[4] = molecular target: Flag-tagged K544E-LRRK2 (human) (UniProt Q5S007); assay: as above
[5] = molecular target: Flag-tagged R1441C-LRRK2 (human) (UniProt Q5S007); assay: as above
[6] = molecular target: Flag-tagged T1410M-LRRK2 (human) (UniProt Q5S007); assay: as above
[7] = molecular target: Flag-tagged wild type LRRK2 (leucine-rich repeat kinase 2) (human) (UniProt Q5S007); assay: as above
[8] = molecular target: Flag-tagged A211V-LRRK2 (human) (UniProt Q5S007); assay: co-IP; HEK293T co-expressing Flag-LRRK2 and V5-FADD (4:1) for 72 h; 500 ug clarified lysate (IP lysis buffer: 20 mM HEPES, 150 mM NaCl, 0.1% NP-40, 2 mM EGTA, 2 mM MgCl2, 10% glycerol) incubated overnight with Flag-conjugated resin; eluate blotted for V5 and Flag
[9] = molecular target: Flag-tagged I2020T-LRRK2 (human) (UniProt Q5S007); assay: as above
[10] = molecular target: Flag-tagged wild type LRRK2 (leucine-rich repeat kinase 2) (human) (UniProt Q5S007); assay: as above

binding [1]: binds | binding [2]: binds | binding [3]: binds | binding [4]: binds | binding [5]: binds | binding [6]: binds | binding [7]: binds | binding [8]: binds | binding [9]: binds | binding [10]: binds
Substance: Full length V5-tagged FADD (from UniProt Q13158 1-208)
